From publication PMC10449621, “Engineering cellular communication between light-activated synthetic cells and bacteria” (Nature Chemical Biology, 2023)
Several values for one entry are separate records, joined by “and”; a condition that tells them apart may be missing. Equal entries are not always repeated.

Assays:
Format in all cases: cell-based, E. coli XL10-Gold
[1] = test system: BjaRS107R (B0034|CTG) receiver cells; experiment: IV-HSL biosynthesis by BjaI in bulk CFPS reactions, quantified with receiver cells; conditions: 80 µM IV-CoA, 300 µM SAM, 37 °C, 5 h
Protocol: We first validated bjaI expression using bulk CFPS reactions containing (^35S)-methionine to visualize the newly synthesized protein. The full-length BjaI protein (25 kDa) was successfully translated, and its expression was not influenced by the presence of SAM and IV-CoA (Fig. 4b). To establish whether the BjaI was enzymatically active, CFPS reactions containing 80 µM IV-CoA and 300 µM SAM were incubated at 37 °C for 5 h, and then serially diluted and incubated with BjaRS107R (B0034|CTG) receiver cells. Indeed, IV-HSL was successfully synthesized within the CFPS reactions as the reaction mixture containing the complete set of components (bjaI DNA + SAM + IV-CoA) fully activated gfp expression in the receivers, while no fluorescence output was observed from CFPS reactions containing SAM and IV-CoA, but without bjaI DNA template (Fig. 4c,d). […] Similarly, on transferring this system inside GUVs, BjaI-producing synthetic cells also synthesized sufficient IV-HSL to fully activate gfp expression in BjaRS107R (B0033|ATG) receiver cells. […]
In total, 3 µl CFPS reactions were prepared using PURExpress with 0.8 U µl^−1 murine RNase inhibitor, 5 ng µl^−1 linear bjaI DNA template and 300 µM SAM and 80 µM IV-CoA, as indicated. […] OD600 and fluorescence were measured using a Tecan infinite M1000 plate reader (Ex, 488 nm; Em, 510 nm; bandwidth, 5 nm; z position, 23,179 µm and gain, 101).

[2] = test system: BjaRWT (B0034|ATG) receiver cells (pSB1A3–bjaR–gfp); experiment: BjaR receiver cell AHSL dose-response (gfp reporter, plate reader)
Source text: (§1) Next, we set out to establish a unidirectional communication pathway by reconstituting the BjaI and BjaR QS machinery, separately, within synthetic cells and E. coli, respectively. As a starting point, IV-HSL-responsive receiver cells were created by transforming E. coli XL10-Gold cells with a reporter plasmid, pSB1A3–bjaR–gfp[28]. This plasmid contained a bjaR gene under the control of a constitutively active J23100 promoter and a gfp gene under the control of a pBjaR promoter. The pBjaR promoter was formed by substituting the lux-box of the pLux promoter with the BjaR-binding site (Supplementary Fig. 10). […] Although this reporter plasmid had been characterized previously, gfp expression was initiated with C4-HSL rather than the cognate ligand, IV-HSL. Thus, we first evaluated the dose–response relationship between synthetic IV-HSL (synthesis described in Methods) and GFP production by BjaR receiver cells. The cells were grown in M9 minimal media to an optical density at 600 nm (OD600) = 0.05, then transferred to a 96-well plate containing IV-HSL and incubated at 37 °C, 800 r.p.m., for 4 h. […] To elucidate the root cause of the high background fluorescence, a BjaRKO variant of the reporter plasmid was constructed. […] Therefore, the high OFF-state was attributed to BjaR-mediated transcription activation in the absence of IV-HSL, rather than host transcription factors recognizing the pBjaR promoter, or transcription factor independent gfp expression.
(§2) The BjaR reporter plasmids were retransformed into E. coli XL10-Gold cells for each experiment. A single colony was used to inoculate 5 ml LB + Amp media and incubated at 37 °C, 225 r.p.m. overnight. Overnight cultures were diluted 1/250 or 1/500 in 5 ml M9 minimal media + Amp and incubated at 37 °C, 225 r.p.m. for 3 h and 45 min (until OD600 = ~0.075). Cultures were diluted down to OD600 = 0.05 with M9 minimal media + Amp, and 200 µl was added to wells of a 96-well plate containing 1 µl IV-HSL dissolved in DMSO or 1 µl BjaI CFPS reactions (IV-HSL concentrations obtained from serial dilution from 63.2 µM to 632 pM; final DMSO concentration = 0.5%). Cells were incubated at 37 °C, 800 r.p.m., in a thermomixer with a heated lid for 4 h. Fluorescence and OD600 were measured in a Tecan M1000 infinite plate reader (excitation, 488 nm; emission, 510 nm; bandwidth, 5 nm; gain, 101 and z position, 21,311 µm). The dose–response curves were fitted to the function indicated by Eq. (1), where a = maximal fluorescence output, b = basal fluorescence output, X = concentration of AHSL, GFP = fluorescence at the given condition, EC50 = AHSL at 50% maximal fluorescence output and h = hill coefficient. EC50 and h were derived using the nonlinear regression model based on Eq. (1), in MATLAB. A summary of the dose–response data is available in Supplementary Table 1.1 GFP=b+a−b/1+10^logEC50−X×h

[3] = test system: BjaRKO receiver cells (pSB1A3–bjaRKO–gfp); experiment: as above
Source text: as §1, §2

[4] = test system: BjaRS107R (B0033|ATG) receiver cells; experiment: IV-HSL biosynthesis by BjaI-expressing synthetic cells (GUVs), quantified with receiver cells
[5] = 0.5× PURExpress, without murine RNase inhibitor, 50 mM sucrose

With CC(C)CC(=O)N[C@H]1CCOC1=O [IV-HSL, N-isovaleryl-L-homoserine lactone] as the compound, how does the “IV-HSL generated in bulk CFPS reactions” value [1] read?
Its value is 17.9 ± 2.6 pmol/µL.

What about the “IV-HSL concentration in bulk BjaI CFPS reaction” value ([1]; estimated from receiver cell fluorescence) of the same compound?
The value was 17.9 ± 2.6 µM.

And the OD600 ([2]; Log([ASHL]) -6.5)?
Its OD600 is 0.1407 and 0.1426 and 0.1342.

What about the OD600 ([2]; Log([ASHL]) -7) of the same compound?
Its OD600 is 0.1411 and 0.1451 and 0.131.

What about the OD600 ([2]; Log([ASHL]) -7.5) of the same compound?
The OD600 was 0.1331 and 0.1386 and 0.1217.

And the OD600 ([2]; Log([ASHL]) -8)?
Its OD600 is 0.1336 and 0.1241 and 0.1283.

What about the OD600 ([2]; Log([ASHL]) -8.5) of the same compound?
The OD600 was 0.1339 and 0.1207 and 0.1286.

And the OD600 ([2]; Log([ASHL]) -9)?
Its OD600 is 0.1331 and 0.1177 and 0.1275.

What about the OD600 ([2]; Log([ASHL]) -9.5) of the same compound?
Its OD600 is 0.1411 and 0.1167 and 0.1286.

And the OD600 ([2]; Log([ASHL]) -10)?
The OD600 was 0.1334 and 0.1176 and 0.1288.

What about the OD600 ([2]; Log([ASHL]) -10.5) of the same compound?
Its OD600 is 0.1328 and 0.1169 and 0.1254.

And the OD600 ([2]; Log([ASHL]) -11)?
Its OD600 is 0.1305 and 0.1181 and 0.12.

And the OD600 ([2]; Log([ASHL]) -11.5)?
The OD600 was 0.1288 and 0.108 and 0.1174.

What about the OD600 ([3]; Log([ASHL]) -6.5) of the same compound?
Its OD600 is 0.3306 and 0.3621 and 0.2891.

What about the OD600 ([3]; Log([ASHL]) -7) of the same compound?
The OD600 was 0.3381 and 0.3609 and 0.3016.

What about the OD600 ([3]; Log([ASHL]) -7.5) of the same compound?
The OD600 was 0.3398 and 0.371 and 0.3048.

What about the OD600 ([3]; Log([ASHL]) -8) of the same compound?
The OD600 was 0.362 and 0.2933 and 0.3353.

What about the OD600 ([3]; Log([ASHL]) -8.5) of the same compound?
Its OD600 is 0.3639 and 0.2941 and 0.3444.

What about the OD600 ([3]; Log([ASHL]) -9) of the same compound?
The OD600 was 0.3486 and 0.2915 and 0.3248.

What about the OD600 ([3]; Log([ASHL]) -9.5) of the same compound?
Its OD600 is 0.3475 and 0.2972 and 0.3208.

And the OD600 ([3]; Log([ASHL]) -10)?
The OD600 was 0.3471 and 0.28 and 0.3178.

And the OD600 ([3]; Log([ASHL]) -10.5)?
Its OD600 is 0.3456 and 0.2865 and 0.316.

And the OD600 ([3]; Log([ASHL]) -11)?
Its OD600 is 0.3415 and 0.2834 and 0.3206.

And the OD600 ([3]; Log([ASHL]) -11.5)?
Its OD600 is 0.3371 and 0.3126 and 0.2784.

What about the “IV-HSL produced by GUVs” value [4, 5] of the same compound?
The value was 32.5 ± 13.6 nM.

And the “IV-HSL produced per inner solution” value [4, 5]?
The value was 0.16 ± 0.068 pmol µl^−1 inner solution.

And the “IV-HSL generated by the GUVs” value ([4]; 1× PURExpress GUVs)?
Its value is 2.28 ± 0.60 pmol/µL.

What about the “IV-HSL concentration in synthetic cell samples” value ([4]; 1× PURExpress GUVs, 25 µl samples) of the same compound?
Its value is 458.5 ± 119.6 nM.
